Results reported in PMC4914246.
These are yes or no findings as the source states them, for the method shown. A result given as binding can be weak or reduced; the word gives no strength.

Amino acid sequences for entries named in this document (tags omitted). A change or cut given only in a name is not applied to a line headed by its entry. Residues count along the entry.
UniProt P15941, residues 1182-1255: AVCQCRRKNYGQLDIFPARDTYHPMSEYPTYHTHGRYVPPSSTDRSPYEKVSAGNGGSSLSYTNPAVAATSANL
UniProt P16070: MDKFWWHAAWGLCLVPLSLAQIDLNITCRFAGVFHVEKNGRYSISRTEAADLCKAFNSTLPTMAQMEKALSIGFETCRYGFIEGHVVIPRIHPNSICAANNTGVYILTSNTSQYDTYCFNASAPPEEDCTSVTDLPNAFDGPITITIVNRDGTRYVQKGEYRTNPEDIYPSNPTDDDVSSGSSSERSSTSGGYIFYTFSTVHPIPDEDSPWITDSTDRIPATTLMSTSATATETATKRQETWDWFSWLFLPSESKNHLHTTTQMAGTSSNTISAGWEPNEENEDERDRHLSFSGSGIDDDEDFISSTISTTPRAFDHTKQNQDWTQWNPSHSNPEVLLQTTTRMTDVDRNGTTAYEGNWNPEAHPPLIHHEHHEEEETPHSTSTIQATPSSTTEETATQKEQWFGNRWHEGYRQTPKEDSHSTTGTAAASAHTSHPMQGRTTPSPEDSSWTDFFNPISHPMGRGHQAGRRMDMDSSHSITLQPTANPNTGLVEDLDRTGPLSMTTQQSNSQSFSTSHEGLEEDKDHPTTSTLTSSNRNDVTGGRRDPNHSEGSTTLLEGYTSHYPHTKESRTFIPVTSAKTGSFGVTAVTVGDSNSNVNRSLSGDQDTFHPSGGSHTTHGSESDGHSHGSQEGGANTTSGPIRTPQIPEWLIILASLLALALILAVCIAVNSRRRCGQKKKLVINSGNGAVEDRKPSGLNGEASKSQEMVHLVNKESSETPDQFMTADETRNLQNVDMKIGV

Tests used:
[1] = molecular target: GST-MUC1-CD (MUC1-C cytoplasmic domain) (UniProt P15941); assay: pull-down; GST, GST-MUC1-CD or GST-MUC1-CD fragments incubated with His-CD44-ICD, purified proteins, 2 h at room temperature; adsorbates to glutathione-conjugated beads immunoblotted with anti-CD44; both purified
[2] = molecular target: GST-CD44-ICD (CD44 intracellular domain) (human (RT-PCR from SK-CO-1 cells)) (UniProt P16070); assay: pull-down; GST, GST-CD44-ICD or GST-CD44-ICD fragments incubated with MUC1-CD (GST removed with thrombin), purified proteins, 2 h at room temperature; adsorbates to glutathione-conjugated beads immunoblotted with anti-MUC1-C; both purified

| binding [1] | binding [2] | Substance |
| --- | --- | --- |
| binds | – | His-CD44-ICD (CD44 intracellular domain) (from UniProt P16070) (domain or fragment) |
| – | binds | MUC1-CD (MUC1-C cytoplasmic domain, GST moiety removed with thrombin) (from UniProt P15941 1182-1255) (domain or fragment) |
